According to patent US7514215B2, “Sulfotransferase SULT2A1 sequence variants” (Mayo Foundation for Medical Education and Research, priority 2001, dated 2009):

System: SULT2A1
Test: Gel filtration chromatography of recombinant human SULT2A1 (Sephadex G-100)
Conditions: Sephadex G-100, 4° C., 5 mM K phosphate buffer pH 7.5
Protocol: Gel Filtration Chromatography: Gel filtration chromatography of recombinant human SULT2A1 was performed at 4° C. with a 2×25 cm column of Sephadex G-100 superfine. The mobile phase was 5 mM K phosphate buffer, pH 7.5, and 3 ml fractions were collected at a flow rate of approximately 1.8 mL per h. The fractions were assayed for SULT2A1 activity. Standards for column calibration were eluted separately and included Dextran Blue 2000, bovine serum albumin (67 kDa), ovalbumin (45 kDa), chymotrypsinogen A (20 kDa) and ribonuclease A (13.7 kDa).
The Ala261Thr polymorphism is located within the dimerization motif at the C-terminus of the conserved ‘Region IV’ SULT signature sequence, and may alter the formation of the SULT2A1 homodimer. To test that hypothesis, recombinant WT and codon Thr261 variant allozyme preparations were subjected to gel filtration chromatography through Sephadex G-100.

Row | Molecule | major peak on gel filtration (dimer or monomer) | major peak on gel filtration (dimer or monomer) (listed as codon Thr261 variant allozyme)
1 | WT: recombinant wild type (reference) human SULT2A1 polypeptide, SEQ ID NO:3, expressed in COS-1 cells (protein, listed as Homo Sapiens) MSDDFLWFEGIAFPTMGFRSETLRKVRDEFVIRDEDVIILTYPKSGTNWLAEILCLMHSKGDAKWIQSVPIWERSPWVESEIGYTALSESESPRLFSSHLPIQLFPKSFFSSKAKVIYLMRNPRDVLVSGYFFWKNMKFIKKPKSWEEYFEWFCQGTVLYGSWFDHIHGWMPMREEKNFLLLSYEELKQDTGRTIEKICQFLGKTLEPEELNLILKNSSFQSMKENKMSNYSLLSVDYVVDKAQLLRKGVSGDWKNHFTVAQAEDFDKLFQEKMADLPRELFPWE | dimer | –
2 | Ala261Thr: SULT2A1 allozyme having a threonine at amino acid 261 in place of an alanine (protein) MSDDFLWFEGIAFPTMGFRSETLRKVRDEFVIRDEDVIILTYPKSGTNWLAEILCLMHSKGDAKWIQSVPIWERSPWVESEIGYTALSESESPRLFSSHLPIQLFPKSFFSSKAKVIYLMRNPRDVLVSGYFFWKNMKFIKKPKSWEEYFEWFCQGTVLYGSWFDHIHGWMPMREEKNFLLLSYEELKQDTGRTIEKICQFLGKTLEPEELNLILKNSSFQSMKENKMSNYSLLSVDYVVDKAQLLRKGVSGDWKNHFTVTQAEDFDKLFQEKMADLPRELFPWE | disrupts dimerization | monomer
